Screen size: about 350,000 compounds; about 1,200 (0.34%) were called active. This list was built around the results that the source calls inconclusive (neither active nor inactive); the mix of calls is not that of the screen. The call rests on the fitted dose curve; in most records, active means well fitted inhibition curve with a large enough effect; inconclusive means small, poorly fitted or top-dose-only effect; inactive means no such curve, though single readings can be large or run the other way. Potencies beside an inconclusive call are fits to weak or partial responses and may not hold up.
molecular target: DNA repair nuclease/redox regulator APEX1 (Homo sapiens) (UniProt P27695); assay: qHTS Assay for Inhibitors of the Human Apurinic/apyrimidinic Endonuclease 1 (APE1); settings: recombinant APE1, TAMRA/BHQ-2 abasic DNA cleavage fluorescence; series mostly up to 65.8 µM; further: nearly all actives have a fitted effect of over 55% in size
Summary of the method: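 Compound pre-exposure to 0.75 nM APE1, 15 min at ambient temperature. Reaction initiated with 50 nM TAMRA/BHQ-2 THF substrate, read immediately in kinetic mode, 525 nm excitation, 598 nm emission.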
Potency means the concentration at half of the fitted maximal effect.

Sequences of proteins named here, by UniProt entry; tags and fusion partners are left off.
UniProt P27695, whole entry, looked up: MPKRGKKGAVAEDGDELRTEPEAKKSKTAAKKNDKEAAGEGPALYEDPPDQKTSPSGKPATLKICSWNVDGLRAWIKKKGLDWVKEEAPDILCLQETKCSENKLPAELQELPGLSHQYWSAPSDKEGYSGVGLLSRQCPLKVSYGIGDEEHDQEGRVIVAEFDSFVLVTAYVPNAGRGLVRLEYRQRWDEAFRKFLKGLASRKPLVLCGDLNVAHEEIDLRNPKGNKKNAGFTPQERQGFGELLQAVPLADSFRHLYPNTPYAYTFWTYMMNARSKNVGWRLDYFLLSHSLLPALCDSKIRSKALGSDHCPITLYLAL

Question: How did the Potency turn out when `Cc1ccc(-c2csc3ncn(CC#N)c(=O)c23)cc1` was run?
Answer: inactive

Question: `CCNc1nc(SCCOc2ccc(C)cc2)nc(N(C)C)n1` was tested. Which Potency did it give?
Answer: inconclusive: 7.94 µM [inhibitor, partial curve, poor fit]

Question: How did the Potency turn out when `N#Cc1nc(-c2ccco2)oc1N1CCC(C(N)=O)CC1` was run?
Answer: inactive

Question: `CN(C)S(=O)(=O)c1cccc(C(=O)NCCc2ccccc2)c1` was tested. Which Potency did it give?
Answer: inconclusive: 11.2 µM [inhibitor, partial curve]

Question: With `COC(=O)c1ccc(NC(=O)c2cn(-c3ccccc3)nc2-c2ccncc2)cc1` as the molecule, how does the Potency read?
Answer: inconclusive: 11.2 µM [inhibitor, partial curve]

Question: With `Cc1ccc(S(=O)(=O)N(CC(=O)N/N=C/c2ccco2)Cc2ccccc2)cc1` as the molecule, how does the Potency read?
Answer: inactive

Question: How did the Potency turn out when `Cc1nc2ccc(NC(=O)Cc3cccc(F)c3)cc2s1` was run?
Answer: inconclusive: 14.1 µM [inhibitor, partial curve, poor fit]

Question: `O=c1ccc(-c2nc3cc(Cl)ccc3n2Cc2ccccc2)c[nH]1` was tested. Which Potency did it give?
Answer: inconclusive: 44.7 µM [inhibitor, single point]

Question: With `CN(C)c1cccc(C(=O)Nc2ccc3nc4n(c(=O)c3c2)CCCCC4)c1` as the molecule, how does the Potency read?
Answer: inconclusive: 39.8 µM [inhibitor, single point]

Question: For `O=C(/C=C/c1ccco1)Nc1nc(-c2ccccn2)cs1`, which Potency is on record?
Answer: inactive

Question: For `CN(C)C(=O)c1ccc(-c2cc(NCc3ccccc3)ncn2)cc1`, which Potency is on record?
Answer: inconclusive: 35.5 µM [inhibitor, single point]

Question: With `COc1cccc2c(=O)n(CC(=O)Nc3ccccc3F)ccc12` as the molecule, how does the Potency read?
Answer: inconclusive: 2.82 µM [inhibitor, single point]

Question: For `Cc1c(O)ccc2c(CC(=O)N[C@@H](Cc3ccc(O)cc3)C(=O)O)cc(=O)oc12`, which Potency is on record?
Answer: inactive

Question: How did the Potency turn out when `COC(=O)c1c(NC(=O)/C=C/c2ccco2)sc2c1CCC2` was run?
Answer: inconclusive: 39.8 µM [inhibitor, single point]

Question: How did the Potency turn out when `COc1ccccc1CN1CCNC(=O)C1CC(=O)O` (centres undefined) was run?
Answer: inconclusive: 3.55 µM [inhibitor, single point]

Question: Which Potency does the source give for `Cc1ccc(C(=O)N/C(=C\c2ccc(Br)cc2)c2nc(=S)[nH][nH]2)cc1` here?
Answer: inconclusive: 44.7 µM [inhibitor, single point]

Question: How did the Potency turn out when `O=C(Cn1cnc2cc([N+](=O)[O-])ccc2c1=O)NC1CCS(=O)(=O)C1` (centres undefined) was run?
Answer: inconclusive: 35.5 µM [inhibitor, single point]

Question: For `COc1ccccc1OCCOc1ccc(/C=C2\C(=N)N3N=C(S(C)(=O)=O)SC3=NC2=O)cc1`, which Potency is on record?
Answer: active: 21.2 µM

Question: With `N#C/C(=C\c1ccc[nH]1)C(=O)Nc1ccccc1[N+](=O)[O-]` as the molecule, how does the Potency read?
Answer: inconclusive: 15 µM [inhibitor, partial curve]
